The target in the assay is Rad53 (S. cerevisiae) (UniProt P22216). As to the kind of experiment: two-hybrid; MCK1 in pGADT7, RAD53 in pGBKT7; strain AH109; growth on SC-Trp-Leu or SC-Trp-Leu-His plates with 0.5 mM 3-amino-triazole (3AT).

Amino acid sequences for entries named in this document (tags omitted).
UniProt P22216: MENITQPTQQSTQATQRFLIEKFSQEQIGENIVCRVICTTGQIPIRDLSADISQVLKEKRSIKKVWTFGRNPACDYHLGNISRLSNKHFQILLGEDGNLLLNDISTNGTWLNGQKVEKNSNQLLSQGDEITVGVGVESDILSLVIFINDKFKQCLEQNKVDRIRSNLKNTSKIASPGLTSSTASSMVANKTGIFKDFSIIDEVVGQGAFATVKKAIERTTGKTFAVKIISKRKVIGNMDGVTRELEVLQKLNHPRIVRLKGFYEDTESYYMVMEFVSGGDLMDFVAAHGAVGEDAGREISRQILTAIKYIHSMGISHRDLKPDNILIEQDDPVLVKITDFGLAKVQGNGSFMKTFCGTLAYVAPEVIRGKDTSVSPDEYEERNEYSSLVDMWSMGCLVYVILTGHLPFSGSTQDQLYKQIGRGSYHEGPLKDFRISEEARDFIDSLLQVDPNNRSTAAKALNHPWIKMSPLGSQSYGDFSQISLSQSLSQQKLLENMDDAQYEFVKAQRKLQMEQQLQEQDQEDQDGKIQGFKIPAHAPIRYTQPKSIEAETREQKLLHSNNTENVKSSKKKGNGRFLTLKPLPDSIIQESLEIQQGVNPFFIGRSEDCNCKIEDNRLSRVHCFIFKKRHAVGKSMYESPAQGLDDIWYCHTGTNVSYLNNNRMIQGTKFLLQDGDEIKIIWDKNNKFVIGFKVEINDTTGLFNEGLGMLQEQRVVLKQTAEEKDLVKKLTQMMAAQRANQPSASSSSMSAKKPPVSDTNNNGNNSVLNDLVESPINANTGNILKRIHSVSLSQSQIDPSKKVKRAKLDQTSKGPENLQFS

These are yes or no findings as the source states them, for the method shown. Some binding calls cover weakened binding; strength is not graded here.

B1: Mck1 (enzyme, UniProt P21965 1-375)
chain: MSTEEQNGVPLQRGSEFIADDVTSNKSNNTRRMLVKEYRKIGRGAFGTVVQAYLTQDKKNWLGPFAIKKVPAHTEYKSRELQILRIADHPNIVKLQYFFTHLSPQDNKVYQHLAMECLPETLQIEINRYVTNKLEMPLKHIRLYTYQIARGMLYLHGLGVCHRDIKPSNVLVDPETGVLKICDFGSAKKLEHNQPSISYICSRFYRAPELIIGCTQYTTQIDIWGLGCVMGEMLIGKAIFQGQEPLLQLREIAKLLGPPDKRFIFFSNPAYDGPLFSKPLFSGSSQQRFEKYFGHSGPDGIDLLMKILVYEPQQRLSPRRILAHQFFNELRNDDTFLPRGFTEPIKLPNLFDFNDFELQILGEFADKIKPTKVAE
For the molecule B1, the binding entry is listed as “binds”.
